Test system: metastatic castration-resistant prostate cancer (mCRPC) with DNA-repair anomalies
Conditions: over time, BRCA and non-BRCA groups; 300 mg once daily
Protocol: The planned sample size was approximately 120 subjects with measurable disease who were biomarker-positive (approximately 75 subjects with DNA repair anomalies in BRCA [BRCA1 or BRCA2] and approximately 45 subjects with biallelic DNA-repair anomalies in non-BRCA [ATM, FANCA, PALB2, CHEK2, BRIP1, or HDAC2]).
Efficacy objectives were evaluated for subjects meeting the biomarker selection criteria described in the protocol. All subjects were monitored for safety during the study period, and up to 30 days after the last dose of study drug. Treatment continued until disease progression, unacceptable toxicity, death, or termination of the study by the sponsor. […]
The primary endpoint was ORR and summarized for the BRCA analysis set along with the 95% 2-sided exact CI. […] ORR in non-BRCA subjects was analyzed in the same way.
Descriptive summaries of CTC response were generated for BRCA and non-BRCA analysis sets, measurable and non-measurable subgroups and tabulated with its 2-sided 95% exact CI. […] All time to event secondary endpoints were evaluated using Kaplan-Meier method for BRCA and non-BRCA analysis sets. […]
Time to degradation was determined using the following meaningful change threshold values: FACT-P Total (10-point reduction from baseline), EQ-5D-5L Index (0.09-point reduction from baseline). […]

## NC(=O)c1cccc2cn(-c3ccc([C@@H]4CCCNC4)cc3)nc12 [Niraparib, 2-[4-[(3S)-piperidin-3-yl]phenyl]-2H-indazole-7-carboxamide]
  FACT-P, and EQ-5D-5L VAS and Index scores (patient-reported outcomes): stable over time

From patent US20240325369A1 (priority 2021, published 2024)
